Source: PubChem BioAssay AID1259424 (University of Nebraska Medical Center, 2018)

Assay: 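Find knockdowns that reproduce the expression shifts seen after KSR1 loss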 (primary screen)
Cell system: human HCT116 colon cancer cells
Knock-down reagent: siRNA pool against human genes, 50 nM
Detection: 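Log2 levels of six mRNAs (branched-DNA multiplex), adjusted by two reference genes and the non-targeting median, then scored against the average KSR1 knockdown pattern as Pearson r and euclidean distance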
Scale: mean correlation with KSR1 profile and KSR1 correlation: higher = expression change more like KSR1 knockdown; mean distance from KSR1 profile: higher = expression change less like KSR1 knockdown
Here is a random part of about 14,000 deposited reagents. 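Higher correlation or smaller distance means closer resemblance to KSR1 loss; control wells, including KSR1 knockdowns, recur on many plates.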 Not all columns of the deposit are shown. The record does not give: the time to read-out.

no.	target	mean correlation with KSR1 profile	mean distance from KSR1 profile	KSR1 correlation, replicate 1
1	DGKE (GeneID 8526)	0.427	1.75	0.336
2	CNTN6 (GeneID 27255)	-0.144	2.36	-0.0591
3	EMC2 (GeneID 9694)	0.414	1.49	0.272
4	GPLD1 (GeneID 2822)	-0.00556	2.04	-0.205
5	PLAAT4 (GeneID 5920)	-0.185	1.39	-0.233
6	ITSN1 (GeneID 6453)	0.231	1.67	-0.162
7	TMEM14B (GeneID 81853)	0.213	2.18	0.268

3 of these entries, set out differently:
DGKE (GeneID 8526) | mean correlation with KSR1 profile: 0.427; mean distance from KSR1 profile: 1.75; KSR1 correlation, replicate 1: 0.336
CNTN6 (GeneID 27255) | mean correlation with KSR1 profile: -0.144; mean distance from KSR1 profile: 2.36; KSR1 correlation, replicate 1: -0.0591
EMC2 (GeneID 9694) | mean correlation with KSR1 profile: 0.414; mean distance from KSR1 profile: 1.49; KSR1 correlation, replicate 1: 0.272

The results go on:
no.	target	mean correlation with KSR1 profile	mean distance from KSR1 profile	KSR1 correlation, replicate 1
8	DCUN1D1 (GeneID 54165)	-0.657	1.78	-0.371
9	PSMC3IP (GeneID 29893)	0.66	1.28	0.609
10	CARS1 (GeneID 833)	0.307	1.48	0.26
11	NFATC4 (GeneID 4776)	-0.138	2.66	-0.22
12	TXLNA (GeneID 200081)	0.023	1.34	0.0915
13	ATP6V1D (GeneID 51382)	-0.311	4.57	-0.384
14	PCBD2 (GeneID 84105)	0.7	1.38	0.604
15	HEATR5A (GeneID 25938)	0.258	1.35	0.735
16	FLNC (GeneID 2318)	0.107	1.36	0.215
17	MMP10 (GeneID 4319)	0.299	2.06	0.302
18	HSD11B2 (GeneID 3291)	0.223	2.71	0.32
19	COPS4 (GeneID 51138)	-0.608	2.18	-0.52
20	DDX19A (GeneID 55308)	0.0531	2.4	0.0062
